Data as given in PubChem BioAssay AID330 (DTP/NCI, 2004).
The list shows only some results of the screen, not a fair sample: it is rich in T/C values a quarter to a half above the control, in often repeated tests (any T/C) and in doses without a T/C. Further doses and runs are listed elsewhere. T/C gives the treated animals as a percentage of the vehicle group. Some doses have a count of surviving animals in place of a T/C: the source files T/C as zero there, which appears to mark a toxic dose or a test without result, not a measured value. Some survivor counts are full or nearly so, which does not show that the dose was tolerated: survival well below the control is almost never listed, so the zero probably covers shortened survival too. Counts of survivors are from the toxicity check (mostly the fifth day) where no day follows; animals may have died later. Schedule codes are those of the source, read here as Q, the interval in days (D) or hours (H), X, the number of doses. Some doses were run more than once; the results are listed from low to high. Where survival is the endpoint, this PubChem deposit counts one and a half times the control or more as active, and values a quarter to a half above the control carry no call in these data; other NCI protocols may use other cut-offs. Some T/C values are followed by the survivors on the day toxicity was checked, most often the fifth; where none is given, no animal had died by that day.

Test system: P388 leukemia ip, CD2F1 mice, survival T/C
Experiment: NCI In Vivo Anticancer Drug Screen. Data for tumor model P388 Leukemia (intraperitoneal) in CD2F1 (CDF1) mice
Settings: T/C endpoint: median survival time, higher T/C = longer survival
[1] = dose: 4.5 mg/kg/injection, schedule: Q01DX009 (ip), vehicle: water
[2] = dose: 400.0 mg/kg/injection, schedule: Q01DX009 (ip), vehicle: saline
[3] = dose: 120.0 mg/kg/injection, schedule: Q01DX005 (ip), vehicle: saline with Tween-80
[4] = dose: 240.0 mg/kg/injection, schedule: Q01DX005 (ip), vehicle: saline with Tween-80
[5] = dose: 200.0 mg/kg/injection, schedule: Q01DX005 (ip), vehicle: saline with Tween-80

## C1CCC2C[N-]CCC2C1.C1CCC2C[N-]CCC2C1.C1CCC2C[N-]CCC2C1.C1CCC2C[N-]CCC2C1.[Cl][Rh][Cl] (stereo not drawn)
dose: 1.0 mg/kg/injection, schedule: Q01DX009 (ip), vehicle: saline
  T/C: 130 % of control
dose: 1.0 mg/kg/injection, schedule: Q03HX024 (ip), vehicle: saline
  T/C: 131 % of control
dose: 1.3 mg/kg/injection, schedule: Q01DX009 (ip), vehicle: water
  T/C: 134 % of control
dose: 2.0 mg/kg/injection, schedule: Q01DX009 (ip), vehicle: saline
  T/C: 141 % of control [9 of 10 alive]
dose: 2.0 mg/kg/injection, schedule: Q01DX009 (ip), vehicle: water
  T/C: 132 and 138 % of control
dose: 2.0 mg/kg/injection, schedule: Q03HX016 (ip), vehicle: saline
  survivor count: 5 of 10
dose: 2.0 mg/kg/injection, schedule: Q03HX024 (ip), vehicle: saline
  T/C: 136 % of control
dose: 3.0 mg/kg/injection, schedule: Q01DX009 (ip), vehicle: water
  T/C: 137 % of control
dose: 4.0 mg/kg/injection, schedule: Q01DX009 (ip), vehicle: saline
  T/C: 140 % of control
dose: 4.0 mg/kg/injection, schedule: Q03HX008 (ip), vehicle: saline
  survivor count: 7 of 10
[1]
  T/C: 132 % of control [5 of 6 alive]
  survivor count: 6 of 6
dose: 6.7 mg/kg/injection, schedule: Q01DX009 (ip), vehicle: water
  survivor count: 1 of 6 and 3 of 6
dose: 8.0 mg/kg/injection, schedule: Q01DX001 (ip), vehicle: saline
  T/C: 128 % of control
dose: 8.0 mg/kg/injection, schedule: Q01DX009 (ip), vehicle: saline
  T/C: 140 % of control
dose: 8.0 mg/kg/injection, schedule: Q04DX003 (ip), vehicle: saline
  T/C: 131 % of control
dose: 16.0 mg/kg/injection, schedule: Q01DX001 (ip), vehicle: saline
  T/C: 138 % of control
dose: 16.0 mg/kg/injection, schedule: Q04DX003 (ip), vehicle: saline
  T/C: 141 % of control
dose: 16.0 mg/kg/injection, schedule: Q08DX002 (ip), vehicle: saline
  T/C: 144 % of control
dose: 32.0 mg/kg/injection, schedule: Q01DX001 (ip), vehicle: saline
  T/C: 127 % of control
dose: 32.0 mg/kg/injection, schedule: Q08DX002 (ip), vehicle: saline
  T/C: 131 % of control

## CN(C)N=Nc1cn[nH]c1C(N)=O
dose: 100.0 mg/kg/injection, schedule: Q04DX003 (ip), vehicle: Klucel (hydroxypropylcellulose) (HPC)
  T/C: 127 % of control
dose: 200.0 mg/kg/injection, schedule: Q04DX003 (ip), vehicle: Klucel (hydroxypropylcellulose) (HPC)
  T/C: 135 % of control

## CC(=O)Nc1ccc(S(=O)(=O)/C(=C/c2ccc(-c3ccc(Br)cc3)o2)c2ccc([N+](=O)[O-])o2)cc1
dose: 200.0 mg/kg/injection, schedule: Q01DX009 (ip), vehicle: suspension in saline
  survivor count: 6 of 6

## CCCC(=O)O
[2]
  survivor count: 1 of 6

## CC1=C2CCC(O)C2(C)CCC(=O)C1 (stereo not drawn)
dose: 400.0 mg/kg/injection, schedule: Q04DX003 (ip), vehicle: Klucel (hydroxypropylcellulose) (HPC)
  survivor count: 3 of 6

## O=[N+]([O-])c1c(O)c(CNCCCO)cc(CNCCCO)c1O
dose: 25.0 mg/kg/injection, schedule: Q01DX009 (ip), vehicle: saline
  T/C: 128 % of control
dose: 50.0 mg/kg/injection, schedule: Q01DX009 (ip), vehicle: saline
  T/C: 129 % of control
dose: 100.0 mg/kg/injection, schedule: Q01DX009 (ip), vehicle: saline
  T/C: 134 and 138 % of control
dose: 200.0 mg/kg/injection, schedule: Q01DX009 (ip), vehicle: saline
  survivor count: 2 of 6
[2]
  survivor count: 0 of 6

## CN=C(N)N/N=C(\C)c1ccc2c(c1)-c1ccc(/C(C)=N/NC(N)=NC)c3cccc-2c13
dose: 50.0 mg/kg/injection, schedule: Q04DX002 (ip), vehicle: saline with Tween-80
  survivor count: 1 of 6
dose: 100.0 mg/kg/injection, schedule: Q04DX002 (ip), vehicle: saline with Tween-80
  survivor count: 0 of 6
dose: 200.0 mg/kg/injection, schedule: Q04DX002 (ip), vehicle: saline with Tween-80
  survivor count: 1 of 6

## CCCCCCCCCCCC(=O)NCC(=O)NC1C(CO)OC(Nc2ncnc3nc[nH]c23)C(O)C1O (stereo not drawn)
dose: 0.25 mg/kg/injection, schedule: Q01DX009 (ip), vehicle: other
  T/C: 141 % of control
dose: 0.5 mg/kg/injection, schedule: Q01DX009 (ip), vehicle: other
  T/C: 128 % of control
dose: 1.0 mg/kg/injection, schedule: Q01DX009 (ip), vehicle: other
  T/C: 129 and 137 % of control
dose: 4.0 mg/kg/injection, schedule: Q01DX009 (ip), vehicle: other
  survivor count: 6 of 6
dose: 8.0 mg/kg/injection, schedule: Q01DX009 (ip), vehicle: other
  survivor count: 6 of 6

## C1=CCC23CCCCC2(C1)CN(/N=N/N1CC24CC=CCC2(CCCC4)C1)C3 (stereo not drawn)
dose: 25.0 mg/kg/injection, schedule: Q01DX009 (ip), vehicle: Klucel (hydroxypropylcellulose) (HPC)
  survivor count: 6 of 6

## O=c1[nH]cc(CSc2ncc[nH]2)c(=O)[nH]1
[3]
  T/C: 129 % of control [4 of 6 alive]
dose: 120.0 mg/kg/injection, schedule: Q01DX005 (ip), vehicle: saline
  survivor count: 3 of 6
dose: 180.0 mg/kg/injection, schedule: Q01DX005 (ip), vehicle: saline
  survivor count: 0 of 6
[4]
  survivor count: 0 of 6

## COC1=C(OC)C(=O)C(SCCCCCCC2CCCCC2)=CC1=O
dose: 2.0 mg/kg/injection, schedule: Q01DX009 (ip), vehicle: Klucel (hydroxypropylcellulose) (HPC)
  survivor count: 6 of 6
dose: 4.0 mg/kg/injection, schedule: Q01DX009 (ip), vehicle: Klucel (hydroxypropylcellulose) (HPC)
  survivor count: 6 of 6
dose: 8.0 mg/kg/injection, schedule: Q01DX009 (ip), vehicle: Klucel (hydroxypropylcellulose) (HPC)
  survivor count: 6 of 6

## CC(=O)[O][Sn]([CH3])([CH3])[CH3]
dose: 1.5 mg/kg/injection, schedule: Q01DX009 (ip), vehicle: saline
  survivor count: 6 of 6
dose: 3.0 mg/kg/injection, schedule: Q01DX009 (ip), vehicle: saline
  survivor count: 0 of 6

## C[n+]1ccc2ccccc2c1SC1CCC2CC3CC2C1C3 (stereo not drawn)
dose: 30.0 mg/kg/injection, schedule: Q01DX005 (ip), vehicle: saline with Tween-80
  survivor count: 1 of 6
dose: 60.0 mg/kg/injection, schedule: Q01DX005 (ip), vehicle: saline with Tween-80
  survivor count: 2 of 6
[3]
  survivor count: 0 of 6
[4]
  survivor count: 0 of 6

## COc1cc(NCC(C)(O)CN(CC(C)C)CC(C)C)c2ncccc2c1 (stereo not drawn)
dose: 100.0 mg/kg/injection, schedule: Q01DX005 (ip), vehicle: saline
  survivor count: 0 of 5
dose: 200.0 mg/kg/injection, schedule: Q01DX005 (ip), vehicle: saline
  survivor count: 0 of 5

## COc1cc2c(cc1OC)CN1CCc3cc(OC)c(OC)cc3[C@@H]1C2
dose: 100.0 mg/kg/injection, schedule: Q01DX005 (ip), vehicle: saline with Tween-80
  survivor count: 5 of 5
[5]
  survivor count: 2 of 5

## O=C(C1CO1)C(Cl)(Cl)Cl (stereo not drawn)
dose: 50.0 mg/kg/injection, schedule: Q01DX001 (ip), vehicle: saline
  T/C: 131 % of control
dose: 100.0 mg/kg/injection, schedule: Q01DX001 (ip), vehicle: saline
  survivor count: 3 of 6
dose: 200.0 mg/kg/injection, schedule: Q01DX001 (ip), vehicle: saline
  survivor count: 0 of 6
dose: 400.0 mg/kg/injection, schedule: Q01DX001 (ip), vehicle: saline
  survivor count: 0 of 6

## C=CCn1cc2c3c(cccc31)C1CC(C)CN(C)C1C2 (stereo not drawn)
[5]
  survivor count: 0 of 6

## ClC1(c2ccccc2)c2ccc(Br)cc2-c2cc(Br)ccc21
dose: 100.0 mg/kg/injection, schedule: Q01DX009 (ip), vehicle: Klucel (hydroxypropylcellulose) (HPC)
  T/C: 133 % of control
dose: 100.0 mg/kg/injection, schedule: Q01DX009 (ip), vehicle: saline with Tween-80
  T/C: 136 % of control
dose: 150.0 mg/kg/injection, schedule: Q01DX009 (ip), vehicle: Klucel (hydroxypropylcellulose) (HPC)
  T/C: 125 % of control

## COc1cc2c(c(OC)c1OC)-c1ccc(OC)c(=O)cc1[C@@H](N(C)C)CC2
dose: 20.0 mg/kg/injection, schedule: Q01DX009 (ip), vehicle: Klucel (hydroxypropylcellulose) (HPC)
  T/C: 130 and 131 % of control [5 of 6 alive]
dose: 40.0 mg/kg/injection, schedule: Q01DX009 (ip), vehicle: Klucel (hydroxypropylcellulose) (HPC)
  survivor count: 5 of 6

## COc1cc(C2C3=C(CC(C)(C)CC3=O)Oc3cc4c(cc32)OCO4)cc(OC)c1OC (stereo not drawn)
[4]
  survivor count: 6 of 6
